Values quoted from earlier work as cited in patent US11834640B2, “Device and uses thereof for treating diabetes” (Board of Regents, The University of Texas System, priority 2019, dated 2023).
At least one read-out could not be matched to a standard name with certainty.

Settings: Millipore-Sigma statement; cited from earlier work

Oc1cc2c(cc1O)CN(C(=S)NCCc1ccc(Cl)cc1)CCC2 [Capsazepine]
membrane permeability: membrane-impermeant
